Measured values as given in patent publication US20210401863A1, “TREATMENT AND PREVENTION OF NEISSERIA GONORRHOEAE INFECTION USING CMP-ACTIVATED NONULOSONATE ANALOG COMPOUNDS” (NATIONAL RESEARCH COUNCIL OF CANADA, priority 2015, published 2021).
Some entries share one result that the patent states for a list of compounds. At least one compound was matched to its structure with a doubt left.

system: N. gonorrhoeae H041; test: BALB/c mouse vaginal colonization model; type: in vivo, BALB/c mice; details: 10 μg intravaginally daily, Kaplan-Meier
Experimental: FIG. 2: Female BALB/c mice 5-6 weeks of age (Jackson Laboratories) in the diestrus phase of the estrous cycle were started on treatment (that day) with 0.5 mg of Premarin (Pfizer) given subcutaneously on each of three days; −2, 0 and +2 days (before, the day of and after inoculation) to prolong the estrus phase of the cycle and promote susceptibility to N. gonorrhoeae infection. Antibiotics (vancomycin, colistin, neomycin, trimethoprim and streptomycin) that were ineffective against N. gonorrhoeae were also used to reduce competitive microflora. Mice (n=40) were then infected with 10^6 CFU of strain H041. Three groups of mice (n=10/group) were treated with 10 μg intravaginally daily (first dose was administered 30 minutes before the introduction of bacteria) with one of the following CMP-NulOs in normal saline: CMP-Leg5Ac7Ac, CMP-Neu5Ac9Az or CMP-KDN. A fourth group (n=10) was given saline (vehicle control). Vaginal swabs were obtained daily from each animal, serially diluted and plated on chocolate agar containing vancomycin, colistin, neomycin, trimethoprim and streptomycin (VCNTS) to quantify bacterial loads. A. Median time to clearance was estimated using Kaplan-Meier survival curves; the times to clearance were compared between groups using a log-rank test. P<0.0001 for the control versus each of the treatment groups. Time to clearance between each of the treatment groups was similar (P>0.05). B. The mean area under the curve (log10 CFU vs. time) was computed for each mouse to estimate the bacterial burden over time (cumulative infection); the means under the curves were compared between groups using the Kruskal-Wallis nonparametric rank sum test because distributions were skewed or kurtotic. Groups were compared using Dunn's multiple comparison test. ****, P<0.0001; **, P<0.01; *, P<0.05. The differences among the groups that received CMP-NulOs were not significant.
The mouse model experiments and statistical analysis were conducted as described in the art and in U.S. Pat. No. 9,765,106. […]

Row | Compound | time to clearance, P for the control versus treatment group (log-rank test)
1 | CC(=O)N[C@H]1[C@H]([C@H](O)[C@H](O)CN=[N+]=[N-])OC(OP(=O)(O)OC[C@H]2O[C@@H](n3ccc(N)nc3=O)[C@H](O)[C@@H]2O)(C(=O)O)C[C@@H]1O (stereo partly drawn) [CMP-Neu5Ac9Az] | < 0.0001
2 | CC(=O)N[C@@H]([C@@H]1O[C@](OP(=O)(O)OC[C@H]2O[C@@H](n3ccc(N)nc3=O)[C@H](O)[C@@H]2O)(C(=O)O)C[C@H](O)[C@H]1NC(C)=O)[C@@H](C)O [CMP-Leg5Ac7Ac] | < 0.0001
3 | Nc1ccn([C@@H]2O[C@H](COP(=O)(O)O[C@@]3(C(=O)O)CC(O)[C@@H](O)C([C@H](O)[C@H](O)CO)O3)C(O)C2O)c(=O)n1 (stereo partly drawn) [CMP-KDN, cytidine 5′-monophospho-3-deoxy-D-glycero-D-galacto-nonulosonic acid] | < 0.0001
